## Results of single-concentration screens

The values are deposited in ChEMBL (CHEMBL3988442, “University of Dundee, Small-Polar-MMV Screening Library” (2021)).

Mtb cholesterol medium: 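Growth of Mycobacterium tuberculosis over 4 days (cholesterol / DPPC medium with tyloxapol); the read-out is not stated. Concentration: 50 µM. Higher reads as more growth inhibition (inferred: compounds with an IC50 in retests scored well above the rest). About 69,000 compounds were tested under these conditions; 0.54% (about 370) showed 50% or more at least once.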
Mtb glucose medium: 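Phenotypic screen: M. tuberculosis growth, glucose 7H9 medium, 3 days; the read-out is not stated. Compounds at 50 µM. Direction is inferred from retests: higher values go with more growth inhibition. Size under these conditions: about 69,000 compounds, about 760 of them at 50% or above in at least one test.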

The filed quantity is “Percent Effect” (%). The controls that fix the scale are not given in the record; negative values are as filed. The compounds are a random part of those screened. Two or more numbers in one place are separate tests of the same structure; such repeats can differ widely.

SMILES	Mtb cholesterol medium	Mtb glucose medium
CNC(=O)N1Cc2cc(F)ccc2C2(CCN(C)CC2)C1.Cl	-8.372%	-2.09% & 7.763%
CC(CN1CCOC1=O)NC(=O)c1cccc(C#N)c1 (stereo unspecified)	11.06%	3.669%
Cn1cc(CN2CCn3cc(CNC(=O)c4cccn4C)nc3C2)cn1.O=C(O)C(F)(F)F	5.416%	8.412%
Cc1cccc2nc(CN3CCC(N4CCN(C)C4=O)CC3)cn12	-24.5%	-47.89%
CC(c1ccco1)N(C(=O)CNc1ccc(C#N)cc1)C1CC1 (stereo unspecified)	2.939%	11.25% & 13.94%
NC(=O)C1CCC(NC(=O)COc2ccc(Cl)c(Cl)c2)CC1 (stereo unspecified)	-11.88%	7.128%
Cn1cnc2c1CCN(CC(=O)N(Cc1ccsc1)C1CC1)C2	-10.51%	-4.275% & -8.923%
CCCn1c(O)nnc1SCC1OCCc2ccccc21 (stereo unspecified)	-2.156%	-8.566%
CCCN1CCC(c2nc3ccc(NCc4ccccc4)cn3n2)CC1.O=C(O)C(F)(F)F.O=C(O)C(F)(F)F	-6.354%	6.83%
CCOCC(=O)N1CC(=O)Nc2cc(Br)ccc21	2.611%	11.6%
Cc1nn(C)c2cnn(CC(=O)NCc3ccc(F)cc3)c12	24.9%	-30.55%
CC[C@@H]1N(CC2CCOCC2)CCC[C@]12CCC(=O)N2.O=C(O)C(F)(F)F	12.66%	-4.703% & -5.732%
COCCn1c2c(ccc1=O)CCN(C(=O)CC1CC1)CC2	-5.511%	2.662%
Cc1c(-c2nc(-c3cccc(CN4CCOCC4)c3)no2)cnn1C	25.63%	-11.47%
Cc1cnn(CC2CCCCN2C(=O)Cc2c(C)noc2C)c1 (stereo unspecified)	-9.375%	2.892%
Cc1c(C(=O)NS(=O)(=O)c2ccsc2)cnn1CC(C)C	-9.903%	-27.5%
O=C(C1CCOC1)N1CCc2ncnc(C3CC3)c2CC1 (stereo unspecified)	11.09%	15.17% & -6.545%
O=C(CN1CCC(c2cccc(F)c2)C1)NCc1ccco1 (stereo unspecified)	-2.856%	-20.29%
CCn1c(CC2CCN(C(=O)c3cc(CC(C)C)on3)CC2)n[nH]c1=O	-9.744%	-4.933%
CCSCCC(=O)NS(=O)(=O)c1ccc2c(c1)OCCO2	5.308%	-25.02%
CCn1nccc1CN(C)c1nc(N)nc2c1nc(C)n2C	-44.82%	-67.29%
COC(=O)N(C)CCCC(=O)Nc1[nH]nc(-c2ccncc2)c1C	16.91%	9.312% & 21.89%
C[C@@H]1CN(C(=O)c2cn(CCN3CCCCC3)nn2)C[C@H](C)O1	-18.88%	3.748%
O=C(O)C(F)(F)F.c1cncc(N2CCCC3(CCN(CC4CCCO4)CC3)C2)c1 (stereo unspecified)	-20.14%	17.74%
Cc1cc(C)n(CC2CCCN2CCCS(C)(=O)=O)n1 (stereo unspecified)	-4.685%	-5.69%
CCN1C(=O)C(c2ccccc2)CC12CCN(Cc1cccnc1)CC2.O=C(O)C(F)(F)F.O=C(O)C(F)(F)F (stereo unspecified)	11.95%	6.118%
O=C(NCCc1c[nH]cn1)C1CCCN(Cc2ccco2)C1 (stereo unspecified)	5.855% & 2.018%	-4.91%
Cc1ccc(C)c(CN(C)Cc2nnc3ccccn23)c1	9.686%	-0.599%
Cc1nc2n(n1)CCN(S(=O)(=O)c1ccc(Cl)cc1)C2	7.105%	-10.75% & -5.776%
CCCS(=O)(=O)N1CCC2(CC1)CCn1c(-c3cnn(C)c3)cnc12.O=C(O)C(F)(F)F	8.902%	35.45%
CN(CCOc1ccc(Cl)cc1)Cc1ccc(S(=O)(=O)N(C)C)o1	-2.531%	22.29%
Cc1c(C2CCCN(C(=O)Cc3ccccn3)C2)n2c(nc1=O)CCC2.Cl (stereo unspecified)	-28.8%	-7.886%
COCCN1C[C@H](NC(=O)CCC(F)(F)F)[C@@H](C(C)C)C1	1.769%	-12.39%
COc1c(CNCc2ccc(CS(C)(=O)=O)cc2)c(C)nn1C	-32.21%	-37.18%
CN1CC(=O)N(c2cnn(C)c2)CC12CCN(Cc1cccnc1)C2.O=C(O)C(F)(F)F.O=C(O)C(F)(F)F.O=C(O)C(F)(F)F (stereo unspecified)	11.31%	-9.103%
[H][C@]12CC[C@@]3(N=C(C)N(CC4CC4)C3=O)[C@@]1([H])CN(C(=O)NC(C)C)C2	-21.33%	-1.818% & -14.19%
O=C(c1cnc(NCC2CCCO2)c(Cl)c1)N1CCCCC1 (stereo unspecified)	-10.35% & 10.8%	-49.43%
CS(=O)(=O)NC1CCN(C(=O)CCn2cccn2)CC1	-22.27% & -8.698%	-7.115% & -39.54%
CC(C)Oc1ccc(CNC(=O)c2cc(C(N)=O)cs2)cc1F	-5.584%	13.97%
CN(CCC#N)C(=O)CCOc1cccc(F)c1	-22.25%	-9.662% & -11.89%
Cc1c(Cl)c(C(=O)NN2CCOCC2)nn1C	1.162%	13.25%
CC(C)N1CCN(C)C2(CCN(C(=O)c3ccnnc3)CC2)C1=O	-4.399%	-21.19% & 1.552%
CC(=O)N(C)c1nc(CN2CCOC(Cn3cccn3)C2)cs1 (stereo unspecified)	9.555%	9.744%
Cc1nc(C)n(CC2CCCCN2Cc2nc3ccccc3o2)n1 (stereo unspecified)	-31.92%	-6.493%
Cc1ccccc1C(=O)NC[C@@H]1CCN(C(=O)CN2CCCC2)C[C@H]1O	-0.3359%	-8.315% & -7.946%
[H][C@@]12CCN(C[C@@H]1CN1CCC(C)CC1)[C@@H](CNC(=O)c1ccco1)C2	-23.14%	-15.09% & -4.78%
CCCn1ncc(C(=O)N2CCN(C3CCSCC3)CC2)c1C	10.21%	4.927% & -2.346%
CCN(Cc1ccccc1)C(=O)c1cc(C2CCCN2C)ccn1 (stereo unspecified)	-1.171%	-24.12%
CCN(CC)c1nc(C)cc(C(=O)Nc2cccc(C(N)=O)c2)n1	-12.59%	-5.819%
CC(O)CN1CCN(C(=O)c2cc3ccccc3n2C)CC1 (stereo unspecified)	-10.77%	-19.59%
COCc1nccc(C2CCCN(Cc3cccc(F)c3)C2)n1 (stereo unspecified)	-8.955%	-10.86%
O=C(c1ccccn1)N1CCc2c(nc(N3CCCC3)[nH]c2=O)C1	-12.71%	9.52%
CS(=O)(=O)NC1CCN(C(=O)c2[nH]c3ccc(Cl)cc3c2Cl)CC1	17.32%	31.49%
Nc1ccc(CC2COc3ccccc3C2)cn1 (stereo unspecified)	9.578% & 12.68%	4.714%
CNC(=O)CN1CCOCC2(CCCN(Cc3ccc(F)cc3)C2)C1.O=C(O)C(F)(F)F.O=C(O)C(F)(F)F (stereo unspecified)	-1.455% & -4.245%	-12.47%
Cc1nonc1C1CCCN1Cc1ccc(C(=O)Nc2nccs2)cc1 (stereo unspecified)	-2.111%	28.11%
CC1CCN(S(=O)(=O)c2cccn(CC(=O)NC(C)(C)C)c2=O)CC1	0.9837%	-4.259%
O=C1NCC2(CCCN(Cc3ccc(Cl)s3)C2)Oc2ccccc21 (stereo unspecified)	5.398%	22.08%
COc1cnc(CSc2nnc(C)s2)cc1OCC(=O)NC1CCCC1	4.682%	26.03%
COc1ccccc1C1Cn2ccnc2CN1Cc1c[nH]nc1C (stereo unspecified)	-3.996%	2.814%
Cc1cc(C)c2nc(CNC3CCNC3=O)cc(O)c2c1 (stereo unspecified)	12.86%	-15.83%
CC(=O)N1CCC(C)(c2nc(C)no2)CC1	12.1%	25.8%

For reference, 8 entries once more:

| SMILES | Mtb cholesterol medium | Mtb glucose medium |
|---|---|---|
| `CN1CC(=O)N(c2cnn(C)c2)CC12CCN(Cc1cccnc1)C2.O=C(O)C(F)(F)F.O=C(O)C(F)(F)F.O=C(O)C(F)(F)F` (stereo unspecified) | 11.31% | -9.103% |
| `CCCN1CCC(c2nc3ccc(NCc4ccccc4)cn3n2)CC1.O=C(O)C(F)(F)F.O=C(O)C(F)(F)F` | -6.354% | 6.83% |
| `COCCn1c2c(ccc1=O)CCN(C(=O)CC1CC1)CC2` | -5.511% | 2.662% |
| `Cc1ccc(C)c(CN(C)Cc2nnc3ccccn23)c1` | 9.686% | -0.599% |
| `CCCn1ncc(C(=O)N2CCN(C3CCSCC3)CC2)c1C` | 10.21% | 4.927% & -2.346% |
| `COc1c(CNCc2ccc(CS(C)(=O)=O)cc2)c(C)nn1C` | -32.21% | -37.18% |
| `CC(=O)N1CCC(C)(c2nc(C)no2)CC1` | 12.1% | 25.8% |
| `CC1CCN(S(=O)(=O)c2cccn(CC(=O)NC(C)(C)C)c2=O)CC1` | 0.9837% | -4.259% |